# From PubChem BioAssay AID248 (DTP/NCI, 2004)
# The list shows only some results of the screen, not a fair sample: it is rich in T/C values a quarter to a half above the control, in often repeated tests (any T/C) and in doses without a T/C. Further doses and runs are listed elsewhere. T/C: endpoint of the treated group in % of that of the vehicle group. Some entries give survivors of the animals treated and no T/C: the source holds a T/C of zero for them, seemingly a mark for toxic or unscored doses. Some survivor counts are full or nearly so, which does not show that the dose was tolerated: survival well below the control is almost never listed, so the zero probably covers shortened survival too. Counts of survivors are from the toxicity check (mostly the fifth day) where no day follows; animals may have died later. Schedule codes are those of the source, read here as Q, the interval in days (D) or hours (H), X, the number of doses. Some entries were tested several times; the results are listed from low to high. Where survival is the endpoint, the PubChem record calls one and a half times the control and up active, and a quarter to a half above the control has no call in these data; cut-offs in other NCI protocols can differ. Additions like (4×) count equal records among those shown. Some T/C values carry the count of animals alive at the toxicity check (mostly the fifth day); where none is given, no animal had died by that day.
# Tested on: L1210 leukemia ip in BDF1 mice, survival T/C
# Assay: NCI In Vivo Anticancer Drug Screen. Data for tumor model L1210 Leukemia (intraperitoneal) in B6D2F1 (BDF1) mice
# Settings: T/C endpoint: mean survival time, higher T/C = longer survival
# [1] = dose: 200.0 mg/kg/injection, schedule: Q04DX003 (ip), vehicle: saline
# [2] = dose: 200.0 mg/kg/injection, schedule: Q04DX003 (ip), vehicle: Klucel (hydroxypropylcellulose) (HPC)
# [3] = dose: 400.0 mg/kg/injection, schedule: Q04DX003 (ip), vehicle: Klucel (hydroxypropylcellulose) (HPC)
# [4] = dose: 400.0 mg/kg/injection, schedule: Q01DX009 (ip), vehicle: saline with Tween-80
# [5] = dose: 200.0 mg/kg/injection, schedule: Q01DX001 (ip), vehicle: carboxymethylcellulose (CMC)
# [6] = dose: 100.0 mg/kg/injection, schedule: Q01DX009 (ip), vehicle: saline with Tween-80
# [7] = dose: 200.0 mg/kg/injection, schedule: Q01DX009 (ip), vehicle: saline with Tween-80
# [8] = dose: 400.0 mg/kg/injection, schedule: Q04DX002 (ip), vehicle: saline with Tween-80
smiles,measurement,setting,value
Cc1ccc[n+](CC(=O)c2ccccc2)c1,survivor count,"dose: 1.56 mg/kg/injection, schedule: Q01DX009 (ip), vehicle: saline",2 of 6
same,survivor count,"dose: 2.3 mg/kg/injection, schedule: Q01DX009 (ip), vehicle: saline",4 of 6
same,survivor count,"dose: 3.12 mg/kg/injection, schedule: Q04DX003 (ip), vehicle: saline",5 of 6
same,survivor count,"dose: 3.5 mg/kg/injection, schedule: Q01DX009 (ip), vehicle: saline",0 of 6
same,survivor count,"dose: 5.2 mg/kg/injection, schedule: Q01DX009 (ip), vehicle: saline",0 of 6
same,survivor count,"dose: 6.25 mg/kg/injection, schedule: Q04DX003 (ip), vehicle: saline",0 of 6
same,survivor count,"dose: 12.5 mg/kg/injection, schedule: Q04DX003 (ip), vehicle: saline",0 of 6
same,survivor count,"dose: 25.0 mg/kg/injection, schedule: Q04DX003 (ip), vehicle: saline",1 of 6
same,survivor count,"dose: 50.0 mg/kg/injection, schedule: Q04DX003 (ip), vehicle: saline",0 of 6
same,survivor count,"dose: 100.0 mg/kg/injection, schedule: Q04DX003 (ip), vehicle: saline",0 of 6
same,survivor count,[1],0 of 6
same,survivor count,"dose: 400.0 mg/kg/injection, schedule: Q04DX003 (ip), vehicle: saline",1 of 6
CC/C(=C/c1ccc(OC)c(OC)c1)[N+](=O)[O-],survivor count,[2],6 of 6
O=C(CN1CCCCC1)c1ccc(/C=C/c2ccc(Cl)cc2)cc1,survivor count,"dose: 100.0 mg/kg/injection, schedule: Q01DX009 (ip), vehicle: Klucel (hydroxypropylcellulose) (HPC)",6 of 6
same,survivor count,"dose: 200.0 mg/kg/injection, schedule: Q01DX009 (ip), vehicle: Klucel (hydroxypropylcellulose) (HPC)",5 of 6
same,survivor count,[3],6 of 6
CCc1nc(=O)c2ccccc2n1C,survivor count,"dose: 10.0 mg/kg/injection, schedule: Q01DX001 (ip), vehicle: saline",0 of 6
same,survivor count,"dose: 20.0 mg/kg/injection, schedule: Q01DX001 (ip), vehicle: saline",0 of 6
same,survivor count,"dose: 40.0 mg/kg/injection, schedule: Q01DX001 (ip), vehicle: saline",0 of 6
same,survivor count,"dose: 75.0 mg/kg/injection, schedule: Q01DX001 (ip), vehicle: saline",0 of 6
same,survivor count,"dose: 150.0 mg/kg/injection, schedule: Q01DX001 (ip), vehicle: saline",0 of 6
same,survivor count,"dose: 300.0 mg/kg/injection, schedule: Q01DX001 (ip), vehicle: saline",0 of 6
Nc1nc(Cl)nc2c1ncn2C1OC(CO)C(O)C1O (stereo unspecified),T/C,"dose: 75.0 mg/kg/injection, schedule: Q01DX009 (ip), vehicle: saline with Tween-80",128 % of control [5 of 6 alive]
same,T/C,"dose: 132.0 mg/kg/injection, schedule: Q04DX003 (ip), vehicle: saline",126 % of control (2×)
same,T/C,"dose: 150.0 mg/kg/injection, schedule: Q01DX009 (ip), vehicle: saline with Tween-80",129 % of control [4 of 6 alive]
same,T/C,"dose: 150.0 mg/kg/injection, schedule: Q01DX009 (ip), vehicle: saline",143 % of control
same,T/C,[1],"125 [5 of 6 alive], 134, 139 % of control"
same,T/C,"dose: 300.0 mg/kg/injection, schedule: Q04DX003 (ip), vehicle: saline",134 % of control
same,survivor count,"dose: 400.0 mg/kg/injection, schedule: Q01DX001 (ip), vehicle: saline",3 of 6
Nc1ccc([N+](=O)[O-])cc1C(O)(C(F)(F)F)C(F)(F)F (tested in a mixture with another compound),survivor count,[4],5 of 6
O=c1[nH]cc(CC(F)(F)C(F)(F)F)c(=O)[nH]1,survivor count,"dose: 100.0 mg/kg/injection, schedule: Q01DX005 (ip), vehicle: other",2 of 3
same,survivor count,"dose: 200.0 mg/kg/injection, schedule: Q01DX005 (ip), vehicle: other",1 of 3
C1CCC(N2CCOCC2)CC1,survivor count,"dose: 100.0 mg/kg/injection, schedule: Q04DX003 (ip), vehicle: saline with Tween-80",5 of 6
same,survivor count,"dose: 200.0 mg/kg/injection, schedule: Q04DX003 (ip), vehicle: saline with Tween-80",0 of 6
same,survivor count,"dose: 400.0 mg/kg/injection, schedule: Q04DX003 (ip), vehicle: saline with Tween-80",0 of 6
CC(=O)c1ccc(N2CCNCC2)cc1,survivor count,"dose: 80.0 mg/kg/injection, schedule: Q01DX001 (ip), vehicle: carboxymethylcellulose (CMC)",2 of 4
same,survivor count,"dose: 100.0 mg/kg/injection, schedule: Q01DX001 (ip), vehicle: carboxymethylcellulose (CMC)",0 of 4
same,survivor count,[5],0 of 4
same,survivor count,"dose: 400.0 mg/kg/injection, schedule: Q01DX001 (ip), vehicle: carboxymethylcellulose (CMC)",0 of 4
NN=C1CCC(=NN)CC1,survivor count,"dose: 100.0 mg/kg/injection, schedule: Q01DX009 (ip), vehicle: water",6 of 6
same,survivor count,"dose: 150.0 mg/kg/injection, schedule: Q01DX009 (ip), vehicle: water",0 of 6
same,survivor count,"dose: 200.0 mg/kg/injection, schedule: Q04DX003 (ip), vehicle: water",2 of 6
same,survivor count,"dose: 400.0 mg/kg/injection, schedule: Q04DX003 (ip), vehicle: water",1 of 6
O=S(=O)(O)c1ccc(/C2=c3\cc/c([n-]3)=C(\c3ccc(S(=O)(=O)O)cc3)c3ccc([n-]3)/C(c3ccc(S(=O)(=O)O)cc3)=c3/cc/c([n-]3)=C(\c3ccc(S(=O)(=O)O)cc3)c3ccc2[n-]3)cc1.[Co],survivor count,"dose: 200.0 mg/kg/injection, schedule: Q01DX009 (ip), vehicle: saline",6 of 6
O=C1Nc2ccccc2C12Nc1cccnc1N2 (stereo unspecified),survivor count,"dose: 400.0 mg/kg/injection, schedule: Q01DX001 (ip), vehicle: saline with Tween-80",6 of 6
O=C1OC(O)c2cccc3cccc1c23 (stereo unspecified),T/C,"dose: 25.0 mg/kg/injection, schedule: Q01DX009 (ip), vehicle: saline with Tween-80","91, 96, 97, 101, 115 % of control"
same,T/C,"dose: 50.0 mg/kg/injection, schedule: Q01DX009 (ip), vehicle: saline with Tween-80","90, 92 (2×), 104, 110, 115, 148 % of control"
same,T/C,[6],"96 (2×), 97 (2×), 103 [5 of 6 alive], 106 [2 of 3 alive], 107, 108 % of control [2 of 3 alive]"
same,survivor count,[6],2 of 6
same,T/C,"dose: 100.0 mg/kg/injection, schedule: Q04DX002 (ip), vehicle: saline with Tween-80","91, 98 [5 of 6 alive] (2×), 100 % of control"
same,T/C,[7],"98 [4 of 6 alive], 110 [2 of 3 alive], 114 % of control [2 of 3 alive]"
same,survivor count,[7],1 of 6 and 1 of 3
same,T/C,"dose: 200.0 mg/kg/injection, schedule: Q04DX002 (ip), vehicle: saline with Tween-80","90, 93, 94 [5 of 6 alive], 98 % of control"
same,survivor count,[4],0 of 3 and 0 of 6
same,T/C,[8],"100, 103 [4 of 6 alive], 103 % of control [5 of 6 alive]"
same,survivor count,[8],1 of 3
COC(=O)C#CC(=O)OC,survivor count,"dose: 100.0 mg/kg/injection, schedule: Q04DX003 (ip), vehicle: Klucel (hydroxypropylcellulose) (HPC)",0 of 3
same,survivor count,[2],0 of 3
same,survivor count,[3],0 of 3
CCCC[n+]1[nH]oc(=O)c1C(=O)[O-],survivor count,[2],2 of 6
same,survivor count,[3],0 of 6
O=S(=O)(Nc1ccccc1)c1ccc(C2CC3(Cl)C(Cl)=C(Cl)C2(Cl)C3(Cl)Cl)cc1 (stereo unspecified),T/C,"dose: 133.0 mg/kg/injection, schedule: Q01DX001 (ip), vehicle: carboxymethylcellulose (CMC)",127 % of control
same,T/C,[5],129 % of control
same,survivor count,"dose: 200.0 mg/kg/injection, schedule: Q01DX009 (ip), vehicle: saline sonified",6 of 6
O=C(O)C1C(c2c3ccc(=O)c(O)c-3oc3c(O)c(O)ccc23)C2(Cl)C(Cl)=C(Cl)C1(Cl)C2(Cl)Cl (stereo unspecified),survivor count,"dose: 200.0 mg/kg/injection, schedule: Q01DX009 (ip), vehicle: alcohol",6 of 6
same,survivor count,"dose: 400.0 mg/kg/injection, schedule: Q04DX003 (ip), vehicle: alcohol",2 of 6
